{"sequences": {"note": "Amino acid sequences for entries named in this document (tags omitted). A change or cut given only in a name is not applied to a line headed by its entry.", "UniProt Q01638": "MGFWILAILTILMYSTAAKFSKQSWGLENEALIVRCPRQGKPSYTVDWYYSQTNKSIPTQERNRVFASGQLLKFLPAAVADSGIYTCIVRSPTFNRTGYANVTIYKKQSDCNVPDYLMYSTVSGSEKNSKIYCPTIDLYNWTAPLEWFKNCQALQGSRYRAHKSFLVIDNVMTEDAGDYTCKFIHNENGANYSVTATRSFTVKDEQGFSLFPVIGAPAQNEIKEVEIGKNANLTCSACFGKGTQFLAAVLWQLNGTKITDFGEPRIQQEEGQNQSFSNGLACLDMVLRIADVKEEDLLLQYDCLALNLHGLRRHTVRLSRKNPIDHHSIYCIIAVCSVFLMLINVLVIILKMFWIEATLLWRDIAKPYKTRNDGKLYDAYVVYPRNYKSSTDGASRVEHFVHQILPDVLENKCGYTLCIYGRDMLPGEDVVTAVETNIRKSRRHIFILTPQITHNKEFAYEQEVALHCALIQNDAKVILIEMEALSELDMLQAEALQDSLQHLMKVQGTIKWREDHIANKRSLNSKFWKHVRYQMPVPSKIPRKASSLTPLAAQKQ"}, "source": "PubChem BioAssay AID1259354", "about": "(Paczesny and Yang Labs, IUPUI and University of Michigan, 2018)", "note": "“And” between values parts separate entries of the source, which are not always exact repeats. Identical values can stand only once. About 1,800 (2.3%) of roughly 78,000 compounds were called active. This list was built around the results that the source calls inconclusive (neither active nor inactive); the mix of calls is not that of the screen. Cut-off read from the data, not from the text of the source: active = inhibition above about 30%; inconclusive = mostly about 10% to 28%; inactive = weaker than that.", "data": [{"target": "Interleukin-1 receptor-like 1 (Homo sapiens) (UniProt Q01638)", "assay": "blocks human ST2 binding to IL-33, primary screen, biochemical, AlphaLISA (AID 1259354)", "conditions": "AlphaLISA ST2-Fc/biotin-IL-33 interaction, 1 h; at 17 µM, stronger effect = higher value", "values": [{"smiles": "COc1cccc(C2CC(c3ccc(F)cc3)n3nc(N)nc3N2)c1", "note": "(stereo not given)", "inhibition": "inactive"}, {"smiles": "Cc1cccc(C)c1Nc1nnc(C(C)(C)C)c(=O)[nH]1", "inhibition": "inactive"}, {"smiles": "OC(CN1CCN(C/C=C/c2ccccc2)CC1)Cn1c2ccccc2c2ccccc21", "note": "(stereo not given)", "inhibition": "inconclusive: 23%"}, {"smiles": "CCC(=O)c1ccc(OCC(=O)N2CCC3(CCCNC3)C2)cc1", "note": "(stereo not given)", "inhibition": "inconclusive: 10%"}, {"smiles": "Cc1ccc2c(c1)N(CC(=O)NCc1ccccn1)C(=O)CO2", "inhibition": "inactive"}, {"smiles": "O=C(NCc1cccnc1)c1ccc(CS(=O)(=O)c2ccccc2)o1", "inhibition": "inconclusive: 23%"}, {"smiles": "O=C(Nc1cccc(N2CCCS2(=O)=O)c1)c1cccc(Br)c1", "inhibition": "inconclusive: 14%"}, {"smiles": "Cc1nnc(SCCCNC(=O)C2Cc3ccccc3CN2C)s1", "note": "(stereo not given)", "inhibition": "inconclusive: 17%"}, {"smiles": "CCC1CCCCN1CCCNC(=O)COc1ccc2c(c1)C(=O)CC(C)(C)O2", "note": "(stereo not given)", "inhibition": "inactive"}, {"smiles": "Cc1cc(C)n(-c2ccc(F)cc2CN2C[C@H](N)C[C@H]2C(=O)NC(C)C)n1", "inhibition": "inconclusive: 18%"}, {"smiles": "Cc1nn(CCCC(=O)Nc2ccccc2C(F)(F)F)c(C)c1[N+](=O)[O-]", "inhibition": "inactive"}, {"smiles": "Cc1sc2nc(CCN)nc(NCCCc3ccncc3)c2c1C", "inhibition": "inconclusive: 15%"}, {"smiles": "Cc1ccc(C)c(OCCN(C)Cc2cnc3ccccc3n2)c1", "inhibition": "inconclusive: 18%"}, {"smiles": "O=C(CSc1nc2c(c(=O)n1-c1ccccc1)SCC2)Nc1ccc2c(c1)OCO2", "inhibition": "inconclusive: 19% and inconclusive: 17%"}, {"smiles": "COc1ccc(CC(=O)Nc2ccc3n(c2=O)C[C@H]2C[C@@H]3CN(C(=O)Nc3ccc(OC)cc3)C2)cc1", "inhibition": "inconclusive: 17%"}, {"smiles": "COc1ccc(OC)c(C2=C/C(=C/c3ccc(OC)c(OC)c3)C(=O)O2)c1", "inhibition": "inconclusive: 23%"}, {"smiles": "O=C(c1ccc(Br)cc1)c1ccc(N2CCOCC2)c([N+](=O)[O-])c1", "inhibition": "inconclusive: 19%"}, {"smiles": "Cc1cnccc1CN(C)C(=O)CCN1CCCCO1", "inhibition": "inactive"}, {"smiles": "COc1ccc(Cl)cc1/C=C/c1ccc2cccc(O)c2n1", "inhibition": "inconclusive: 29%"}, {"smiles": "COC(=O)C1C(=O)NC(SCc2ccccc2)=C(C#N)C1c1ccccc1", "note": "(stereo not given)", "inhibition": "inconclusive: 12%"}, {"smiles": "O=C1C2C(c3ccc(Cl)cc3)OC3(C(=O)c4ccccc4C3=O)C2C(=O)N1c1ccc(F)cc1", "note": "(stereo not given)", "inhibition": "inactive"}, {"smiles": "Cc1ccc(S(=O)(=O)Cc2noc([C@@H]3C[C@@H](O)CN3Cc3cccc(OC(F)(F)F)c3)n2)cc1", "inhibition": "inconclusive: 16%"}, {"smiles": "COc1ccc2nc3sc(C(=O)Nc4ccc(F)cc4)cc3cc2c1", "inhibition": "inconclusive: 26%"}, {"smiles": "COc1ccc(CN2CCC(N3CCCCC3)CC2)cc1OCc1ccccc1", "inhibition": "inconclusive: 15%"}, {"smiles": "CC(C)c1ccc(OCC(=O)O/N=C(/N)c2cccnc2)c(Br)c1", "inhibition": "inconclusive: 11%"}, {"smiles": "OCC#CCSc1nnc(-c2ccc(Br)cc2)o1", "inhibition": "inconclusive: 15%"}, {"smiles": "O[C@H]1[C@H](NCc2ccc(OC(F)(F)F)cc2)[C@H]2CO[C@H](O2)[C@@H]1N1CCOCC1", "inhibition": "active: 64%"}, {"smiles": "CCCCc1ncc(CN2CCCC3(CCNCC3)CC2)[nH]1", "inhibition": "inactive"}, {"smiles": "C=CCSc1nc2ccccc2n1CC(=O)O", "inhibition": "inconclusive: 11%"}, {"smiles": "CC1=NOC(C(=O)N(C)Cc2c(C)noc2C)C1", "note": "(stereo not given)", "inhibition": "inconclusive: 10%"}, {"smiles": "Cc1cccc(N2C(=O)CC(N3CCN(C)CC3)C2=O)c1", "note": "(stereo not given)", "inhibition": "inconclusive: 11%"}, {"smiles": "CC(C)Cc1noc(CN(C)c2nc(-c3ccccc3)nc3c2CCNC3)n1", "inhibition": "inconclusive: 12%"}, {"smiles": "COC(=O)[C@@H]1Cc2ncn(Cc3ccc(OC)cc3)c2CN1Cc1cccc(C#N)c1", "inhibition": "active: 41%"}, {"smiles": "COc1ccc(C(=O)Nc2ccc(Nc3nc(C)cc(Nc4ccc(C)cc4)n3)cc2)cc1", "inhibition": "inconclusive: 23%"}, {"smiles": "O=C(CN1C(=O)CSc2ccc(S(=O)(=O)N3CCCCC3)cc21)N1CCCC1", "inhibition": "inactive"}, {"smiles": "Cc1cc(C)n(-c2cccc(CN(C)CC3CCN(Cc4ccc(C)o4)CC3)c2)n1", "inhibition": "inconclusive: 10%"}, {"smiles": "CCOc1ccc2c(=O)c(Oc3ccc(F)cc3)c(C)oc2c1", "inhibition": "inactive"}, {"smiles": "COc1ccccc1CNC(=O)CN(C)C(C)c1nccs1", "note": "(stereo not given)", "inhibition": "inconclusive: 23%"}, {"smiles": "Oc1c(C=Nc2ccccc2F)[nH]c2ccc(Br)c(Cl)c12", "inhibition": "inconclusive: 29%"}, {"smiles": "Cc1cn2cc(CNC(=O)c3ccc(C4CCCO4)s3)nc2s1", "note": "(stereo not given)", "inhibition": "inactive"}, {"smiles": "CSc1cccc(NC(=O)CN2CCN(Cc3ccccc3)S2(=O)=O)c1", "inhibition": "inconclusive: 10%"}, {"smiles": "Cc1ccc(NC(=O)N2Cc3[nH]cnc3C[C@H]2c2nc(-c3ccc4c(c3)OCO4)no2)cc1", "inhibition": "inconclusive: 12%"}, {"smiles": "O=C1CC2(CCN(C(=O)CCc3ccc(-c4ccc(Cl)cc4)[nH]3)CC2)CN1", "inhibition": "inactive"}, {"smiles": "O=C(Nc1c(F)c(F)c(F)c(F)c1F)c1ccccc1", "inhibition": "inconclusive: 11%"}, {"smiles": "Cc1cccc(Cn2cnc3c(cnn3-c3ccccc3)c2=O)c1", "inhibition": "inactive"}, {"smiles": "CN1CCC(N2C[C@H](O)C[C@H]2c2nc(Cc3ccc(F)cc3Cl)no2)CC1", "inhibition": "active: 31%"}, {"smiles": "Cc1ccc(S(=O)(=O)N(CC(=O)Nc2ccc(S(N)(=O)=O)cc2)C2CCCCC2)cc1", "inhibition": "inactive"}, {"smiles": "O=C(Cn1c2c(c(-c3ccccc3)cc1=O)CCCC2)NC1CCCCCC1", "inhibition": "inconclusive: 19%"}, {"smiles": "O=C(O)CN1CCOC(CCc2ccccc2)C1", "note": "(stereo not given)", "inhibition": "inactive"}, {"smiles": "COc1ccc(C2CC(=O)C3=C(C2)OC(N)=C(C#N)C3c2cccc(Br)c2)cc1", "note": "(stereo not given)", "inhibition": "inactive"}, {"smiles": "O=C(Nc1cc([N+](=O)[O-])ccc1Cl)c1cnc2n(c1=O)CCS2", "inhibition": "inconclusive: 11%"}, {"smiles": "O=C(Nc1ccc(Cl)cc1)c1nc[nH]c1C(=O)O", "inhibition": "inconclusive: 21%"}, {"smiles": "Cc1ccc(C)c(Cn2cnc3c(cnn3-c3ccc(Cl)cc3)c2=O)c1", "inhibition": "inconclusive: 14%"}, {"smiles": "Cc1ccc(C)c(S(=O)(=O)Nn2cnnc2)c1", "inhibition": "inconclusive: 13%"}, {"smiles": "O=S(=O)(CCOc1ccccc1)N1CCOCC1", "inhibition": "inconclusive: 11%"}, {"smiles": "OCCNc1ncnc2ccc(-n3ccc(-c4cccnc4)n3)cc12", "inhibition": "inconclusive: 14%"}, {"smiles": "CCNC(=O)O[C@@H]1CO[C@H]2[C@@H]1OC[C@@H]2NC(=S)Nc1cccc(C#N)c1", "inhibition": "active: 92%"}, {"smiles": "CCc1cc2c(=O)c(-c3csc(-c4ccccc4)n3)coc2cc1OC", "inhibition": "inactive"}, {"smiles": "O=C(c1n[nH]c2c1CCC2)N1CCc2c(c(C(=O)N3CCOCC3)nn2CCCc2ccccc2)C1", "inhibition": "inactive"}, {"smiles": "CCN1CCCC1CNC(=O)C1c2cc(OC)c(OC)cc2C(=O)N(C)C1c1cccs1", "note": "(stereo not given)", "inhibition": "inactive"}]}]}
